# Laboratory results reported in the supplement of paper PMC8007513.
# Some of the results follow. Many values rest on one well or one pass, so single values are uncertain.
# System: Saccharomyces cerevisiae BY4743
# Assay: growth (OD600) with compound + IPBC relative to untreated control; higher = less growth inhibition
# Details: compound concentration: 133 uM; IPBC concentration: 0.5 ug/ml; 20 h
# Procedure: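 NMCCC compounds (133 uM) combined with IPBC (0.5 ug/ml) against Saccharomyces cerevisiae BY4743 in YPD, 96-well plates. Growth was read as OD600 at 20 h and expressed as % of the untreated control. Single pass.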
row,SMILES,growth
1,CC(OCc1ccccc1)C(=O)Nc1cccc2c[nH]nc12 (configuration not stated) + CCCCNC(=O)OCC#CI [3-iodo-2-propynyl butylcarbamate (IPBC)],85.3%
2,CC(C)CCNc1cc(-c2ccccc2)nc2nncn12 + CCCCNC(=O)OCC#CI [3-iodo-2-propynyl butylcarbamate (IPBC)],102%
3,COc1ccc(C2c3cc(OC)c(OC)cc3CCN2C(=O)C(C)(C)C)cc1OC (configuration not stated) + CCCCNC(=O)OCC#CI [3-iodo-2-propynyl butylcarbamate (IPBC)],99%
4,CCCOC(=O)c1cccc(Nc2nc(C(=O)OCC)nc3ccccc23)c1 + CCCCNC(=O)OCC#CI [3-iodo-2-propynyl butylcarbamate (IPBC)],85.4%
5,CC(O)CN1C(C2=CC=CC=N2)\C(=C(\O)C1=O)C(=O)C3=CC=C(C)C=C3 (configuration not stated) + CCCCNC(=O)OCC#CI [3-iodo-2-propynyl butylcarbamate (IPBC)],96.7%
6,CCOC(=O)c1sc(NC(=O)C(F)(F)F)c(C(=O)OC)c1C + CCCCNC(=O)OCC#CI [3-iodo-2-propynyl butylcarbamate (IPBC)],105%
7,CC(Sc1ccc2c(c1)OCCCO2)C(=O)Nc1sccc1C(N)=O (configuration not stated) + CCCCNC(=O)OCC#CI [3-iodo-2-propynyl butylcarbamate (IPBC)],113%
8,O=C(O)CCc1ccc(-c2ccccc2)n1NC(=O)c1ccc(O)cc1 + CCCCNC(=O)OCC#CI [3-iodo-2-propynyl butylcarbamate (IPBC)],103%
9,COC(=O)CN\1C(=O)C2=CC=CC=C2\N=C1SC(CC3=CC=C(C)C=C3)C#N (configuration not stated) + CCCCNC(=O)OCC#CI [3-iodo-2-propynyl butylcarbamate (IPBC)],105%
10,CCC(=O)Nc1nc2ccc(NC(=O)Nc3ccccc3OC)cc2s1 + CCCCNC(=O)OCC#CI [3-iodo-2-propynyl butylcarbamate (IPBC)],84.4%
11,Cc1ccc(S(=O)(=O)N(C)c2ccc(C(=O)Nc3ncccc3O)cc2)cc1 + CCCCNC(=O)OCC#CI [3-iodo-2-propynyl butylcarbamate (IPBC)],101%
12,COc1ccc(-c2noc(N(C)CC(=O)Nc3ccc(Br)cc3C)n2)cc1 + CCCCNC(=O)OCC#CI [3-iodo-2-propynyl butylcarbamate (IPBC)],62.3%
13,CCCn1c(=O)n(-c2ccccc2)c(=O)c2ccccc21 + CCCCNC(=O)OCC#CI [3-iodo-2-propynyl butylcarbamate (IPBC)],102%
14,CC(C)CCNc1c2c(nc3nncn13)CCC2 + CCCCNC(=O)OCC#CI [3-iodo-2-propynyl butylcarbamate (IPBC)],104%
15,O=C(Nc1nccs1)c1cccnc1 + CCCCNC(=O)OCC#CI [3-iodo-2-propynyl butylcarbamate (IPBC)],87.9%
16,CC(C)c1ccc(C(=O)Cn2cnc(C#N)n2)c(C(C)C)c1 + CCCCNC(=O)OCC#CI [3-iodo-2-propynyl butylcarbamate (IPBC)],97.3%
17,COc1cccc(CNCc2cccn2-c2sc(C)c(C)c2C(=O)O)c1 + CCCCNC(=O)OCC#CI [3-iodo-2-propynyl butylcarbamate (IPBC)],106%

# Reprinted at random: 2 entries already listed.
row,SMILES,growth
8,O=C(O)CCc1ccc(-c2ccccc2)n1NC(=O)c1ccc(O)cc1 + CCCCNC(=O)OCC#CI [3-iodo-2-propynyl butylcarbamate (IPBC)],103%
11,Cc1ccc(S(=O)(=O)N(C)c2ccc(C(=O)Nc3ncccc3O)cc2)cc1 + CCCCNC(=O)OCC#CI [3-iodo-2-propynyl butylcarbamate (IPBC)],101%
